Screening data, single-dose tests

From ChEMBL document CHEMBL3988442, “University of Dundee, Small-Polar-MMV Screening Library” (2021).

A: 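Phenotypic screen: M. tuberculosis growth, glucose 7H9 medium, 3 days; the read-out is not stated. Concentration: 500 µM. Direction is inferred from retests: higher values go with more growth inhibition. Size under these conditions: about 18,000 compounds, about 1,400 of them at 50% or above in at least one test.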
B: 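Growth of Mycobacterium tuberculosis over 4 days (cholesterol / DPPC medium with tyloxapol); the read-out is not stated. Concentration: 500 µM. The record gives no direction; compounds that gave an IC50 in retests scored well above the rest, so higher reads as more growth inhibition. About 18,000 compounds were tested under these conditions; 5% (about 900) showed 50% or more at least once.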

Each number is a percent effect as filed. The controls that fix the scale are not given in the record; negative values are as filed. This is an unselected part of the compounds tested.

structure | A | B
NC(Cc1ccccc1)C(=O)NC1CC1 (centres undefined) | 5.717 | 8.344
O=C(Cc1ccsc1)N[C@@H]1CCOC[C@H]1OCCO | -6.604 | -11.26
Cc1occc1C(=O)N1CCC(NC(=O)C2CC2)CC1 | 3.215 | -8.537
CC(c1nc(C(C)(C)C)no1)N1CCN(C)CC1 (centres undefined) | -2.643 | 2.423
CC(C)CCC(C)NC(=O)c1ccc(=O)n(C)c1 (centres undefined) | 44.39 | 23.97
CN(Cc1ccc(N(C)C)cc1)C(=O)C1CCC(=O)N1 (centres undefined) | -0.7913 | 2.118
Cn1c(C2CC2)nc2cc(CN)ccc21 | 6.664 | -4.52
Cc1nn(C)cc1C(=O)N[C@@H]1CCOC[C@H]1O | 1.748 | -2.967
N#Cc1ncc(N)cc1Cl | 29.49 | 28.72
O=C(Nc1cccnn1)N[C@H]1c2ccccc2C[C@H]1O | 6.203 | -1.505
Cc1ccnc(NC(=O)CC(C)C)c1 | 14.31 | -4.29
CC1CC(=O)N(C)c2ccccc2N1 (centres undefined) | 2.851 | -5.672
Cn1nc(-c2nc(C(C)(C)C)no2)ccc1=O | -0.4403 | -3.383
Cc1c(C(C)O)nnn1-c1nonc1N (centres undefined) | 10.51 | 16.04
O=C(NC1CCCNC1)c1coc2ccccc12 (centres undefined) | 56.31 | 21.73
CN(C)C1(CNC(=O)c2cn[nH]c2)CCOCC1 | -5.435 | -1.494
CC(C)n1ccnc1CN1CCOC(CN)C1 (centres undefined) | -1.503 | -1.195
Cc1noc(C)c1CNC1CCN(S(C)(=O)=O)CC1 | -6.628 | -9.099
COc1ccc(Br)c(-c2nnn(C)n2)c1 | 18.21 | 12.55
O=C(c1ccsc1)N1CCCN(c2cccnn2)CC1 | 6.376 | -1.642
COCC(C)(CCO)NCc1c(C)noc1C (centres undefined) | 26.07 | 5.902
CN1CCCCC1CCC(=O)NCCCn1cccn1 (centres undefined) | 0.6707 | 4.59
Cc1ccnc(NC(=O)CC(C)C)n1 | -5.522 | -29.75
NCc1ccc(N2CCNCC2)cc1 | 3.613 | 3.746
CC(C)OCCS(=O)(=O)c1cccs1 | 31.82 | 12.92
CCn1ccnc1C(O)c1ccccc1OC (centres undefined) | 7.378 | 16.85
O=C(CSc1ccncc1)N1CCOCC(O)C1 (centres undefined) | 3.327 | 5.441
CC(C)c1nnc(CN2CCCC(O)(CO)CC2)o1 (centres undefined) | 3.621 | 1.714
O=C(CC1COCCN1)N1CCc2[nH]cnc2C1 (centres undefined) | -4.187 | -5.067
CN(C)C(=O)NCCNc1ccnc2cc(Br)cnc12 | -1.946 | -7.361
CCS(=O)(=O)CCN(C)C(=O)Nc1cc(F)cc(Cl)c1 | 44.89 | 23.3
CCOC(=O)CNC(=O)NCCc1ccc(OC)cc1 | 48.1 | 36.59
O=C(C1CC1)N1CCN(Cc2cccc(F)c2)CC1 | 65.91 | 60.75
O=C(c1nnsc1-c1ccc(Cl)cc1)N1CCSCC1 | -18.19 | -22.59
O=C(Nc1ccc(NCc2ccco2)cn1)C1CC1 | -40.64 | -157.8
O=C(CNC(=O)NC1CCCC1)Nc1ccccc1 | 7.99 | 0.7773
COCCCNC(=O)NC(=O)c1ccccc1 | 11.33 | 10.97
C[C@@H]1COC[C@H](c2ccccc2)N1 | -3.23 | -5.688
Cc1cccc(OCC(O)CN)c1 (centres undefined) | 55.11 | 29.65
COCCCN(Cc1ccncc1)C(=O)C1CCCC1 | 0.102 | -14.5
COc1ccc(CN2C[C@H](O)[C@@H](N(C)C)C2)c(C)c1C | 75.06 | 65.77
OC1CCCN(CCCNC2CCSCC2)C1 (centres undefined) | 13.31 | 10.69

The first 4 entries again:

| structure | A | B |
|---|---|---|
| `NC(Cc1ccccc1)C(=O)NC1CC1` (centres undefined) | 5.717 | 8.344 |
| `O=C(Cc1ccsc1)N[C@@H]1CCOC[C@H]1OCCO` | -6.604 | -11.26 |
| `Cc1occc1C(=O)N1CCC(NC(=O)C2CC2)CC1` | 3.215 | -8.537 |
| `CC(c1nc(C(C)(C)C)no1)N1CCN(C)CC1` (centres undefined) | -2.643 | 2.423 |